According to article PMC5868278:
No constants are given. Whether binding was seen depends on the method and setting. Binding seen in cells or lysates may run through a third protein. Some entries that bind do so weakly or less than the wild type.

Molecular target: vitamin D receptor (human) (UniProt P11473)
Assay: co-IP; anti-GFP immunoprecipitation with GFP-Trap beads from HEK293T cells co-transfected with GFP- and HA-tagged constructs; Nonidet P-40 lysis buffer (10 mM Tris-Cl pH 7.5, 150 mM NaCl, 0.5 mM EDTA, 0.5% Nonidet P-40), 1 h at 4 °C; Western blot

binding: binds
B1: vitamin D receptor (protein, UniProt P11473 1-427)
chain: MEAMAASTSLPDPGDFDRNVPRICGVCGDRATGFHFNAMTCEGCKGFFRRSMKRKALFTCPFNGDCRITKDNRRHCQACRLKRCVDIGMMKEFILTDEEVQRKREMILKRKEEEALKDSLRPKLSEEQQRIIAILLDAHHKTYDPTYSDFCQFRPPVRVNDGGGSHPSRPNSRHTPSFSGDSSSSCSDHCITSSDMMDSSSFSNLDLSEEDSDDPSVTLELSQLSMLPHLADLVSYSIQKVIGFAKMIPGFRDLTSEDQIVLLKSSAIEVIMLRSNESFTMDDMSWTCGNQDYKYRVSDVTKAGHSLELIEPLIKFQVGLKKLNLHEEEHVLLMAICIVSPDRPGVQDAALIEAIQDRLSNTLQTYIRCRHPPPGSHLLYAKMIQKLADLRSLNEEHSKQYRCLSFQPECSMKLTPLVLEVFGNEIS
